Publication PMC9853869 (Journal of the American Chemical Society, 2023)

Experiments:
[1] = Fmoc solid-phase peptide synthesis; 2-chlorotrityl chloride resin; DIC/OxymaPure (SPPS); EDC/HOAt, PyAOP/HOAt (solution); conditions: whole synthesis
[2] = general procedure: hybrid (solid and solution phase) peptide synthesis; 2-chlorotrityl chloride resin (200-400 mesh, 1.50-1.90 mmol/g, Bachem); DIC/OxymaPure (SPPS); EDC/HOAt, PyAOP/HOAt (solution); conditions: coupling step
peptide synthesis = conditions: whole synthesis

With “(3S,6R,9R,12S,15S)-3-(4-(Allyloxy)phenyl)-6,9-diisopropyl-12,13” the isolated yield [1] was 68% yield.
Boc-Protected Fragment ABCD-D,L showed a step yield [2] of 55% yield.
Substance “Methyl ((2R)-2-(2-((R)-2-amino-3-methylbutanamido)-3-methyl-3-nitrobutanamido)-5-((tert-butoxycarbonyl)-amino)pentanoyl)-L-valinate” has an isolated yield (peptide synthesis; starting from protected D-ornithine 2) of 66% yield.
For myxovalargin A, the difficulty met (peptide synthesis) was “the final removals of the protecting groups again faced the hurdles already menti” and the outcome (peptide synthesis) was “Initial attempts to synthesize MyxA under solution phase conditions had to be terminated unsuccessfully”.
